Results: paper PMC3887067
These are yes or no findings as the source states them, for the method shown. Binding seen in cells or lysates may run through a third protein.

Amino acid sequences for entries named in this document (tags omitted).
UniProt Q13526: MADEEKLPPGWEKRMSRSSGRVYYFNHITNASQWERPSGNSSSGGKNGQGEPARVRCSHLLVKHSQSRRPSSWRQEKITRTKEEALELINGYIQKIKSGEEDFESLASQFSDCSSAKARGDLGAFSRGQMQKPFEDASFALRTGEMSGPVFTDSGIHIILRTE

Tests used:
[1] = target: peptidyl-prolyl cis/trans isomerase NIMA-interacting 1 (Pin1) (human (endogenous in HEK293T)) (UniProt Q13526); test: co-IP; endogenous Pin1 immunoprecipitated with anti-Pin1 antibody (anti-HA as control) from pre-cleared HEK293T lysate in RIPA buffer, Protein A/G magnetic beads, overnight at 4°C, with or without 10 μg/mL RNaseA; bound proteins detected by western blot
[2] = target: peptidyl-prolyl cis/trans isomerase NIMA-interacting 1 (Pin1) (human (endogenous in HEK293T)), Q13526; test: as above; settings: remark: other sources report otherwise

Binder	binding [1]	binding [2]
TIA1 (protein, UniProt P31483 1-386) MEDEMPKTLYVGNLSRDVTEALILQLFSQIGPCKNCKMIMDTAGNDPYCFVEFHEHRHAAAALAAMNGRKIMGKEVKVNWATTPSSQKKDTSSSTVVSTQRSQDHFHVFVGDLSPEITTEDIKAAFAPFGRISDARVVKDMATGKSKGYGFVSFFNKWDAENAIQQMGGQWLGGRQIRTNWATRKPPAPKSTYESNTKQLSYDEVVNQSSPSNCTVYCGGVTSGLTEQLMRQTFSPFGQIMEIRVFPDKGYSFVRFNSHESAAHAIVSVNGTTIEGHVVKCYWGKETLDMINPVQQQNQIGYPQPYGQWGQWYGNAQQIGQYMPNGWQVPAYGMYGQAWNQQGFNQTQSSAPWMGPNYGVQPPQGQNGSMLPNQPSGYRVAGYETQ	no binding	–
TIAR (protein, UniProt Q01085 1-375) MMEDDGQPRTLYVGNLSRDVTEVLILQLFSQIGPCKSCKMITEHTSNDPYCFVEFYEHRDAAAALAAMNGRKILGKEVKVNWATTPSSQKKDTSNHFHVFVGDLSPEITTEDIKSAFAPFGKISDARVVKDMATGKSKGYGFVSFYNKLDAENAIVHMGGQWLGGRQIRTNWATRKPPAPKSTQENNTKQLRFEDVVNQSSPKNCTVYCGGIASGLTDQLMRQTFSPFGQIMEIRVFPEKGYSFVRFSTHESAAHAIVSVNGTTIEGHVVKCYWGKESPDMTKNFQQVDYSQWGQWSQVYGNPQQYGQYMANGWQVPPYGVYGQPWNQQGFGVDQSPSAAWMGGFGAQPPQGQAPPPVIPPPNQAGYGMASYQTQ	no binding	–
K-homology splicing regulator protein (KSRP), Q92945 1-711 (protein) MSDYSTGGPPPGPPPPAGGGGGAGGAGGGPPPGPPGAGDRGGGGPGGGGPGGGSAGGPSQPPGGGGPGIRKDAFADAVQRARQIAAKIGGDAATTVNNSTPDFGFGGQKRQLEDGDQPESKKLASQGDSISSQLGPIHPPPRTSMTEEYRVPDGMVGLIIGRGGEQINKIQQDSGCKVQISPDSGGLPERSVSLTGAPESVQKAKMMLDDIVSRGRGGPPGQFHDNANGGQNGTVQEIMIPAGKAGLVIGKGGETIKQLQERAGVKMILIQDGSQNTNVDKPLRIIGDPYKVQQACEMVMDILRERDQGGFGDRNEYGSRIGGGIDVPVPRHSVGVVIGRSGEMIKKIQNDAGVRIQFKQDDGTGPEKIAHIMGPPDRCEHAARIINDLLQSLRSGPPGPPGGPGMPPGGRGRGRGQGNWGPPGGEMTFSIPTHKCGLVIGRGGENVKAINQQTGAFVEISRQLPPNGDPNFKLFIIRGSPQQIDHAKQLIEEKIEGPLCPVGPGPGGPGPAGPMGPFNPGPFNQGPPGAPPHAGGPPPHQYPPQGWGNTYPQWQPPAPHDPSKAAAAAADPNAAWAAYYSHYYQQPPGPVPGPAPAPAAPPAQGEPPQPPPTGQSDYTKAWEEYYKKIGQQPQQPGAPPQQDYTKAWEEYYKKQAQVATGGGPGAPPGSQPDYSAAWAEYYRQQAAYYGQTPGPGGPQPPPTQQGQQQAQ	–	no binding
